Assay results: paper PMC11736009
Results are given in words; binding and its absence hold for the method and conditions named. In cells and extracts the contact can be indirect. Some results given as binding are weak or reduced against the parent protein; the word gives no strength. For some assays here: Tags and fused reporters may be left off the sequences shown.

What was measured:
[1] = target: full-length WT Diaph3-Flag (mouse) (UniProt Q9Z207); assay: co-IP; HEK293T cells cotransfected, harvested 48 h later; lysate incubated with Flag beads at 4 °C overnight, washed 3 to 4 times with lysis buffer; Western blot
[2] = target: full-length Diaph3-M1041A-Flag (mouse) (UniProt Q9Z207); assay: as above

B1: Fbxo3 (overexpressed) (protein, UniProt Q9UK99-1 1-471)
chain: MAAMETETAPLTLESLPTDPLLLILSFLDYRDLINCCYVSRRLSQLSSHDPLWRRHCKKYWLISEEEKTQKNQCWKSLFIDTYSDVGRYIDHYAAIKKAWDDLKKYLEPRCPRMVLSLKEGAREEDLDAVEAQIGCKLPDDYRCSYRIHNGQKLVVPGLLGSMALSNHYRSEDLLDVDTAAGGFQQRQGLKYCLPLTFCIHTGLSQYIAVEAAEGRNKNEVFYQCPDQMARNPAAIDMFIIGATFTDWFTSYVKNVVSGGFPIIRDQIFRYVHDPECVATTGDITVSVSTSFLPELSSVHPPHYFFTYRIRIEMSKDALPEKACQLDSRYWRITNAKGDVEEVQGPGVVGEFPIISPGRVYEYTSCTTFSTTSGYMEGYYTFHFLYFKDKIFNVAIPRFHMACPTFRVSIARLEMGPDEYEEMEEEEEEEEEEDEDDDSADMDESDEDDEEERRRRVFDVPIRRRRCSRLF
In the case of B1, the binding [1] is reported as “binds” and the binding [2] is reported as “binds”.

B2: Trim27 (overexpressed) (protein, UniProt Q62158 1-513)
chain: MASGSVAECLQQETTCPVCLQYFVEPMMLDCGHNICCACLARCWGAAETNVSCPQCRETFPQRHMRPNRHLANVTQLVKQLRTERPSGPGGEMGVCEKHREPLKLYCEQDQMPICVVCDRSREHRGHSVLPLEEAVEGFKEQIQNRLDHLRRVKDLKKRRRAQGEQARAELLSLTQMEREKIVWEFEQLYHSLKEHEYRLLARLEELDLAIYNSINGAITQFSCNISHLSGLIAQLEEKQQQPTRELLQDIGDTLSRAERIRIPEPWITPPDLQEKIHIFAQKCLFLTESLKQFTEKMQSDMEKIQELREAQLYSVDVTLDPDTAYPSLILSDNLRQVRYSYLQQDLPDNPERFNLFPCVLGSPCFIAGRHYWEVEVGDKAKWTIGVCEDSVCRKGGVTSAPQNGFWAVSLWYGKEYWALTSPMTALPLRTPLQRVGIFLDYDAGEVSFYNVTERCHTFTFSHATFCGPVRPYFSLSYSGGKSAAPLIICPMSGIDGFSGHVGNHGHSMETSP
B2 was tested, and the binding [1] was “binds” and the binding [2] was “binds”.

For DETGVMDSLLEALQSGAAFRDRRKRTPKLKD (domain or fragment, UniProt Q9Z207 1036-1066) [Diaph3 DAD-HA], the binding [2] was “binds”.
